Data: publication doi:10.1101/2024.03.15.585069

T1: GSRhino-TAP-tagged ICU11 (INCURVATA11) (Arabidopsis thaliana) (UniProt Q3ED68)
T1 sequence: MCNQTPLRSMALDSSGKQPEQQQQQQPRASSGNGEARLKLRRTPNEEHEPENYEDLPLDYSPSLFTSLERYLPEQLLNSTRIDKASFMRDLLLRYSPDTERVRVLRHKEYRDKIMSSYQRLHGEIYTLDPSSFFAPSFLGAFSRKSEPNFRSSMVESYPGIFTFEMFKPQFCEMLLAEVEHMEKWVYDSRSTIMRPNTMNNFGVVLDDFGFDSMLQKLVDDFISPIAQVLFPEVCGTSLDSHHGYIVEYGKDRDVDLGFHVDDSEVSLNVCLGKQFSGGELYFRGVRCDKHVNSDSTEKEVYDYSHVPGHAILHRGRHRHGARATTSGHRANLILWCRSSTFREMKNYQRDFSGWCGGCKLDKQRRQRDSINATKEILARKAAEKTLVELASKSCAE

B1: EMBRYONIC FLOWER 2 (EMF2) (protein, UniProt Q8L6Y4 1-631)
chain: MPGIPLVSRETSSCSRSTEQMCHEDSRLRISEEEEIAAEESLAAYCKPVELYNIIQRRAIRNPLFLQRCLHYKIEAKHKRRIQMTVFLSGAIDAGVQTQKLFPLYILLARLVSPKPVAEYSAVYRFSRACILTGGLGVDGVSQAQANFLLPDMNRLALEAKSGSLAILFISFAGAQNSQFGIDSGKIHSGNIGGHCLWSKIPLQSLYASWQKSPNMDLGQRVDTVSLVEMQPCFIKLKSMSEEKCVSIQVPSNPLTSSSPQQVQVTISAEEVGSTEKSPYSSFSYNDISSSSLLQIIRLRTGNVVFNYRYYNNKLQKTEVTEDFSCPFCLVKCASFKGLRYHLPSTHDLLNFEFWVTEEFQAVNVSLKTETMISKVNEDDVDPKQQTFFFSSKKFRRRRQKSQVRSSRQGPHLGLGCEVLDKTDDAHSVRSEKSRIPPGKHYERIGGAESGQRVPPGTSPADVQSCGDPDYVQSIAGSTMLQFAKTRKISIERSDLRNRSLLQKRQFFHSHRAQPMALEQVLSDRDSEDEVDDDVADFEDRRMLDDFVDVTKDEKQMMHMWNSFVRKQRVLADGHIPWACEAFSRLHGPIMVRTPHLIWCWRVFMVKLWNHGLLDARTMNNCNTFLEQLQI
B2: FERTILIZATION-… ENDOSPERM (FIE) (protein, UniProt Q9LT47 1-369)
chain: MSKITLGNESIVGSLTPSNKKSYKVTNRIQEGKKPLYAVVFNFLDARFFDVFVTAGGNRITLYNCLGDGAISALQSYADEDKEESFYTVSWACGVNGNPYVAAGGVKGIIRVIDVNSETIHKSLVGHGDSVNEIRTQPLKPQLVITASKDESVRLWNVETGICILIFAGAGGHRYEVLSVDFHPSDIYRFASCGMDTTIKIWSMKEFWTYVEKSFTWTDDPSKFPTKFVQFPVFTASIHTNYVDCNRWFGDFILSKSVDNEILLWEPQLKENSPGEGASDVLLRYPVPMCDIWFIKFSCDLHLSSVAIGNQEGKVYVWDLKSCPPVLITKLSHNQSKSVIRQTAMSVDGSTILACCEDGTIWRWDVITK
B3: SWINGER (SWN), endogenous (protein, UniProt Q9ZSM8 1-856)
chain: MVTDDSNSSGRIKSHVDDDDDGEEEEDRLEGLENRLSELKRKIQGERVRSIKEKFEANRKKVDAHVSPFSSAASSRATAEDNGNSNMLSSRMRMPLCKLNGFSHGVGDRDYVPTKDVISASVKLPIAERIPPYTTWIFLDRNQRMAEDQSVVGRRQIYYEQHGGETLICSDSEEEPEPEEEKREFSEGEDSIIWLIGQEYGMGEEVQDALCQLLSVDASDILERYNELKLKDKQNTEEFSNSGFKLGISLEKGLGAALDSFDNLFCRRCLVFDCRLHGCSQPLISASEKQPYWSDYEGDRKPCSKHCYLQLKAVREVPETCSNFASKAEEKASEEECSKAVSSDVPHAAASGVSLQVEKTDIGIKNVDSSSGVEQEHGIRGKREVPILKDSNDLPNLSNKKQKTAASDTKMSFVNSVPSLDQALDSTKGDQGGTTDNKVNRDSEADAKEVGEPIPDNSVHDGGSSICQPHHGSGNGAIIIAEMSETSRPSTEWNPIEKDLYLKGVEIFGRNSCLIARNLLSGLKTCLDVSNYMRENEVSVFRRSSTPNLLLDDGRTDPGNDNDEVPPRTRLFRRKGKTRKLKYSTKSAGHPSVWKRIAGGKNQSCKQYTPCGCLSMCGKDCPCLTNETCCEKYCGCSKSCKNRFRGCHCAKSQCRSRQCPCFAAGRECDPDVCRNCWVSCGDGSLGEAPRRGEGQCGNMRLLLRQQQRILLGKSDVAGWGAFLKNSVSKNEYLGEYTGELISHHEADKRGKIYDRANSSFLFDLNDQYVLDAQRKGDKLKFANHSAKPNCYAKVMFVAGDHRVGIFANERIEASEELFYDYRYGPDQAPVWARKPEGSKKDDSAITHRRARKHQSH

Target: T1, GSRhino-TAP-tagged ICU11 (INCURVATA11) (Arabidopsis thaliana)
Experiment: affinity purification with mass spectrometry

Binder	binding
B1	binds
B2	binds
B3	binds

No constants are given. Whether binding was seen depends on the method and setting. In cells and extracts the contact can be indirect. A yes stands for co-enrichment or nearness to the bait. Other partners may have been found. Sequences can lack the tags named with a protein.
